Test results as given in patent US12060400B2, “Peptides for use in immunotherapy against cancers” (Immatics Biotechnologies GmbH, priority 2018, dated 2024).
For part of these data: Expression grades refer to the transcript from which the peptide derives; gene names, where given, were looked up from the sequence.

Legend:
[1] = system: source gene exon mRNA in tumor and normal tissue samples; assay: Expression profiling (RNAseq) of genes encoding the peptides, tumor versus normal tissues; parameters: species or system human; conditions: RNAseq, Table 9a; for Exon Expression in tumor types vs normal tissue panel: highly over-expressed (++): tumor types in which the peptide's exon is highly over-expressed (++) vs panel of normal tissues; for Exon Expression in tumor types vs normal tissue panel: over-expressed (+): tumor types in which the peptide's exon is over-expressed (+) vs panel of normal tissues; for Exon Expression in tumor types vs normal tissue panel: very highly over-expressed (+++): tumor types in which the peptide's exon is very highly over-expressed (+++) vs panel of normal tissues
[2] = system: HLA molecules of primary tumor and normal tissue samples (cancer entities); assay: Identification and label-free LC-MS quantitation of HLA-presented tumor-associated peptides on tissue samples; parameters: species or system human; conditions: cancer entities on whose tumor tissue samples the HLA-presented peptide was found (LC-MS); abbreviations in the footnotes of Table 8a

| Substance | Exon Expression in tumor types vs normal tissue panel: highly over-expressed (++) [1] | Exon Expression in tumor types vs normal tissue panel: over-expressed (+) [1] | Peptide Presentation on cancer entities [2] | Exon Expression in tumor types vs normal tissue panel: very highly over-expressed (+++) [1] |
| --- | --- | --- | --- | --- |
| 48: peptide found in LOXL4 (gene looked up) (AWSPPATLFLF; listed as Homo sapiens) [compound 48] | MEL | CCC | GC, MEL, NSCLCsquam, OC, RCC |  |
| 55: peptide found in CDK6 (gene looked up) (AVLRHLETF; listed as Homo sapiens) [compound 55] | AML | GBM, GC, OSCAR | CCC |  |
| 56: peptide found in FLT3 (gene looked up) (FYKLIQNGF; listed as Homo sapiens) [compound 56] | AML |  | AML |  |
| 58: peptide found in F5 (gene looked up) (IYYSHENLI; listed as Homo sapiens) [compound 58] | HCC | CCC | CCC, CRC, GC, HCC, NSCLCadeno, NSCLCsquam, OC, PRCA |  |
| 59: peptide found in PTPRZ1 (gene looked up) (VFPLVTPLL; listed as Homo sapiens) [compound 59] | GBM |  | GBM |  |
| 62: peptide found in OXTR (gene looked up) (VYIVPVIVL; listed as Homo sapiens) [compound 62] | CCC | GBM, OC | GBM, NSCLCsquam |  |
| 66: peptide found in PLA2G2D (gene looked up) (IYKDYYRYNF; listed as Homo sapiens) [compound 66] | NHL | MEL | NHL |  |
| 67: peptide found in PTPRZ1 (gene looked up) (SYVLQIVAI; listed as Homo sapiens) [compound 67] | GBM |  | GBM, MEL |  |
| 71: peptide found in CYP1A1 (gene looked up) (RYLPNPSLNAF; listed as Homo sapiens) [compound 71] | NSCLCother |  | HCC, NSCLCadeno |  |
| 76: peptide found in NPFFR2 (gene looked up) (IYIYPFAHW; listed as Homo sapiens) [compound 76] | HCC | GBC | HCC, NHL |  |
| 79: peptide found in SUCNR1 (gene looked up) (FYIVTRPLAF; listed as Homo sapiens) [compound 79] | CCC | AML | NHL, NSCLCadeno |  |
| 80: peptide found in CDK6 (gene looked up) (SYATPVDLW; listed as Homo sapiens) [compound 80] | AML | GBM, GC | AML, CCC, MEL, NSCLCsquam |  |
| 81: peptide found in SLC5A4 (gene looked up) (AYLKLLPMF; listed as Homo sapiens) [compound 81] | MEL |  | BRCA, HNSCC, MEL |  |
| 85: peptide found in UGT1A3 (gene looked up) (KYLSIPTVFF; listed as Homo sapiens) [compound 85] | HCC |  | CCC, GBC, GC, HCC, NSCLCadeno, PRCA, RCC, UBC |  |
| 94: peptide found in MMP12 (gene looked up) (THSGGTNLF; listed as Homo sapiens) [compound 94] | CCC, CRC, GC, MEL, NHL, NSCLCadeno, OC, OSCAR, PACA, SCLC, UBC, UEC | HCC, RCC | NSCLCadeno | GBC, HNSCC, NSCLCother, NSCLCsquam |
| 95: peptide found in OR51E2 (gene looked up) (IGLSVVHRF; listed as Homo sapiens) [compound 95] |  |  | PRCA | PRCA |
| 96: peptide found in OR51E2 (gene looked up) (SHIGVVLAF; listed as Homo sapiens) [compound 96] |  |  | PRCA | PRCA |
| 97: peptide found in OR51E2 (gene looked up) (TQMFFIHAL; listed as Homo sapiens) [compound 97] |  |  | PRCA | PRCA |
| 106: peptide found in KISS1R (gene looked up) (LYAFLGSHF; listed as Homo sapiens) [compound 106] | RCC | BRCA, NSCLCadeno, UEC | RCC |  |
| 120: peptide found in QRFPR (gene looked up) (VYAFMNENF; listed as Homo sapiens) [compound 120] | RCC | NSCLCsquam, OSCAR | RCC |  |
| 124: peptide found in MMP13 (gene looked up) (EYNVFPRTL; listed as Homo sapiens) [compound 124] | HNSCC, NSCLCsquam, OSCAR | NSCLCadeno, UBC | CRC, GC, NSCLCadeno, NSCLCsquam |  |
| 133: peptide found in TERT (gene looked up) (FFYVTETTF; listed as Homo sapiens) [compound 133] | HCC, NHL | AML, GC, OC, OSCAR, SCLC, UEC | NHL |  |
| 137: peptide found in QRFPR (gene looked up) (ALFAVCWAPF; listed as Homo sapiens) [compound 137] | RCC | NSCLCsquam, OSCAR | NSCLCsquam |  |
| 138: peptide found in QRFPR (gene looked up) (MMVTVVALF; listed as Homo sapiens) [compound 138] | RCC | NSCLCsquam, OSCAR | NSCLCsquam, RCC |  |
| 142: peptide found in NOTUM (gene looked up) (PYWWNANMVF; listed as Homo sapiens) [compound 142] | HCC |  | NHL |  |
